# According to article PMC12431657, “Discovery and mechanistic insights of dibenzoylmethane as a broad spectrum inhibitor of coronavirus” (PLOS Pathogens, 2025):
# Where a name gives a salt, the structure may show the parent alone. Read-outs that look alike come from different tables or passages of the source. The campaign covered roughly 3,300 compounds. About 60 (2%) showed an effect of 50% or more. Some of the results follow.
# Test system: HCoV-OC43
# Set-up: species or system RD; HTS, protection from HCoV-OC43 induced cell death, luminescent cell viability (CellCounting-Lite 2.0), inhibition rate
# Details: 24 h post infection, 1 h compound pre-incubation, 10 µM, inhibitor
SMILES,OC43 Inhibition rate,"OC43 Inhibition rate (OC43 Inhibition rate, 24 h)"
C[S+]([O-])CCCC/C(=N\OS(=O)(=O)O)S[C@@H]1O[C@H](CO)[C@@H](O)[C@H](O)[C@H]1O (stereo partly drawn) [Glucoraphanin],-2.3%,
Cc1ccc(C=O)o1 [5-Methylfurfural],-2.9%,
C=C[C@@H]1CNC(=S)O1 [Epigoitrin],-1.3%,
CC(=O)O[C@H]1C[C@@]2(C)[C@@H](C[C@@H](O)[C@H]3[C@@]4(C)CC[C@@H](O)[C@@H](C)[C@@H]4CC[C@@]32C)/C1=C(\CCC=C(C)C)C(=O)O [Fusidic acid (sodium salt)],1.2%,
COc1ccc2c(C)c3[n+](cc2c1OC)CCc1cc2c(cc1-3)OCO2 [13-Methylberberine (chloride)],-8.6%,
CCCCCCCCCCCCCCCCCCCCCCC(=O)O [Tricosanoic acid],-0.3%,
CC(=O)O[C@H]1C[C@H]2CC[C@]1(C)C2(C)C [Bornyl acetate],-0.3%,
CCCCCCCCCCCCCCCCCCCCCCCC(=O)OC [Methyl tetracosanoate],0%,
COc1cc2c(cc1O)C[C@H]1c3cc(O)c(OC)cc3CC[N+]1(C)C2 (stereo partly drawn) [Phellodendrine (chloride)],0%,
COc1cc(/C=C/c2ccc(OC)c(OC)c2)oc(=O)c1 [11-Methoxyyangonin],1%,
C=C1C(=O)O[C@H]2C1CC[C@@](C)(O)C13C=CC(C)(C21)C1(C3)C(=O)O[C@@H]2C3C(C)=CCC3[C@](C)(O)[C@H](OC(C)=O)CC21 (stereo partly drawn) [Handelin],6.6%,
C=C(C)[C@@H]1CC=C(C=O)CC1 [L-Perillaldehyde],0.1%,
C[C@H](C[C@H](O)[C@H]1OC1(C)C)C1=C2C[C@H](O)[C@H]3[C@@]4(C)CCC(=O)C(C)(C)[C@@H]4CC[C@]3(C)[C@@]2(C)CC1 [Alisol B],35.6%,
N=C(N)NCCCCN [Agmatine (sulfate)],-13%,
CC1(C)CCC[C@]2(C)[C@@H](C=O)C(C=O)=CC[C@@H]12 [Polygodial],0.9%,
O=C(O)/C=C\C(=O)O [Maleic Acid],-1.8%,
O=C(O)CCc1ccccc1 [Hydrocinnamic acid],0.1%,
COc1cccc(CC(=O)O)c1 [3-Methoxyphenylacetic acid],-0.4%,
Cc1cc(O)c2c(c1)C(=O)c1cccc(O[C@@H]3O[C@H](CO)[C@@H](O)[C@H](O)[C@H]3O)c1C2=O [Chrysophanol 8-O-glucoside],1.1%,
CCCCCCCCCCCCCCCCCCOC(=O)[C@@]1(C)CC[C@]2(C)CC[C@]3(C)C(=CC(=O)[C@@H]4[C@@]5(C)CC[C@H](O)C(C)(C)[C@@H]5CC[C@]43C)[C@@H]2C1 [Stearyl glycyrrhetinate],-2.5%,
C[C@@H]1CC[C@]2(C(=O)O[C@@H]3O[C@H](CO)[C@@H](O)[C@H](O)[C@H]3O)CC[C@]3(C)C(=CC[C@@H]4[C@@]5(C)CC[C@H](O)[C@@](C)(CO)[C@@H]5CC[C@]43C)[C@@H]2[C@]1(C)O [Pedunculoside],2.3%,

# Three consecutive entries out of the list so far, quoted:
SMILES,OC43 Inhibition rate,"OC43 Inhibition rate (OC43 Inhibition rate, 24 h)"
CC1(C)CCC[C@]2(C)[C@@H](C=O)C(C=O)=CC[C@@H]12 [Polygodial],0.9%,
O=C(O)/C=C\C(=O)O [Maleic Acid],-1.8%,
O=C(O)CCc1ccccc1 [Hydrocinnamic acid],0.1%,

# Following part

SMILES,OC43 Inhibition rate,"OC43 Inhibition rate (OC43 Inhibition rate, 24 h)"
CCCCCCCCCCCC1=C(O)C(=O)C=C(O)C1=O [Embelin],-0.4%,
O=c1c(O)c(-c2ccc(O)c(O)c2)oc2cc(O)cc(O)c12 [Quercetin (dihydrate)],,-0.4%
COc1c2ccoc2cc2oc(=O)ccc12 [Bergapten],3.9%,
O=C(O)C=Cc1ccc(O)cc1 [p-Hydroxycinnamic acid],0.2%,
CN1CCc2cc3c(c4c2C1Cc1ccccc1-4)OCO3 (stereo not drawn) [Roemerine],2.4%,
CC/C=C\CC1=C(C)CCC1=O [cis-Jasmone],-6%,
"O[C@@H]1CCCC[C@H]1O (relative stereo) [trans-Cyclohexane-1,2-diol]",2.5%,
NC(=O)NC1NC(=O)NC1=O (stereo not drawn) [Allantoin],-0.1%,
O=C(O)[C@H]1O[C@@H](Oc2c(O)cc(O)c3c(=O)c(O)c(-c4ccc(O)c(O)c4)oc23)[C@H](O)[C@@H](O)[C@@H]1O [Hibifolin],-1.3%,
CCCCCCCCCCCCCC(=O)O [Myristic acid],-1.2%,
CC(C)=CCC[C@](C)(O)[C@H]1CC[C@]2(C)[C@@H]1[C@H](O)C[C@@H]1[C@@]3(C)CC[C@H](O)C(C)(C)[C@@H]3[C@@H](O[C@@H]3O[C@H](CO)[C@@H](O)[C@H](O)[C@H]3O[C@@H]3O[C@H](CO)[C@@H](O)[C@H](O)[C@H]3O)C[C@]12C [Ginsenoside Rf],-0.4%,
"O=c1cc(-c2ccc(O)cc2)oc2cc(O)ccc12 [7,4'-Dihydroxyflavone]",14.2%,
CN1c2c([nH]c(N)nc2=O)NC[C@@H]1CNc1ccc(C(=O)N[C@@H](CCC(=O)O)C(=O)O)cc1 [Levomefolic acid],6.2%,
"CCOC(=O)c1ccc(O)c(O)c1 [Ethyl 3,4-dihydroxybenzoate]",0.2%,
CCC/C=C1/OC(=O)c2ccccc21 [3-Butylidenephthalide],-0.2%,
COc1cc(-c2oc3cc(O)cc(O)c3c(=O)c2O[C@@H]2O[C@H](CO)[C@@H](O)[C@H](O)[C@H]2O)ccc1O [Isorhamnetin-3-O-glucoside],-0.7%,
CC(C)[C@@H](C)/C=C/[C@@H](C)[C@H]1CC[C@H]2C3=CC=C4C[C@@H](O)CC[C@@]4(C)[C@@H]3CC[C@]12C [Lumisterol],-2.7%,
CC1=C2C(=O)O[C@@H](c3ccoc3)[C@]2(C)CCC1 [Fraxinellone],3.1%,
CC(O)[C@H](C)[C@H](N)C(=O)O (stereo partly drawn) [4-Hydroxyisoleucine],-0.1%,
CC(CN)C(=O)O (stereo not drawn) [3-Amino-2-methylpropanoic acid],-4.3%,
OC[C@H]1O[C@H](O[C@H]2[C@H](O)[C@@H](O)[C@H](O)O[C@@H]2CO)[C@H](O)[C@@H](O)[C@@H]1O [Maltose monohydrate],,-1.1%
